Here are results for one compound from patent US10314877B2, “Method for lymph drainage” (ABOCA S.P.A. SOCIETÀ AGRICOLA, priority 2015, dated 2019).

This test relates to mice. Briefly: Diuretic activity test. It counts as in vivo. The conditions noted are these: 10 mg/kg by gastric probe at t=0, positive control. The method, then:
The animals were housed in metabolic cages (three mice/cage) and were allowed free access to food and drinking water (commercial oligomineral water). In order to obtain similar physiological states of hydration, gavage of oligomineral water of 2.5% body weight was administered to all groups of animals 2 hours before the experiment.
The animals were then divided randomly into groups (9 mice/group) in accordance with the following treatment schema:
3. Furosemide: 100 microl/mouse of furosemide were administered at 10 mg/kg in oligomineral water by means of gastric probe at t=0 (positive control)
4—Goldenrod: 100 microl/mouse of goldenrod extract (200 mg/kg body weight in oligomineral water) were administered by means of gastric probe at t=0
5—Orthosiphon: 100 microl/mouse of extract of orthosiphon (200 mg/kg body weight in oligomineral water) were administered a t=0
6—Goldenrod: orthosiphon (3:1): 100 microl/mouse of co-extract goldenrod+orthosiphon (200 mg/kg body weight in oligomineral water) were administered by gastric probe at t=0
In order to assess the diuretic activity of the compounds, samples of urine were collected in graduated cylinders, and the volume thereof was recorded at intervals of 2 h up to a total of 8 hours.
The urinary excretion, independently of the weight of the animals, was calculated as total diuresis divided by the volume of total liquid administered. […]

With `NS(=O)(=O)c1cc(C(=O)O)c(NCc2ccco2)cc1Cl` [furosemide], the urinary excretion result is “approximately 3.9 ml”.
